Laboratory results from paper doi:10.1101/2020.12.04.411520.
Results are given in words; binding and its absence hold for the method and conditions named. In cells and extracts the contact can be indirect. These calls come from enrichment with a bait or labelling near it, and not all partners need be listed. Where a sequence is shown, tags or fusion partners need not be part of it. Each block holds one molecule with its values, some of them ahead of it.

By UniProt entry, the sequences of proteins in these tests, tags left out. Residues count along the entry.
UniProt Q21281, residues 16-2104: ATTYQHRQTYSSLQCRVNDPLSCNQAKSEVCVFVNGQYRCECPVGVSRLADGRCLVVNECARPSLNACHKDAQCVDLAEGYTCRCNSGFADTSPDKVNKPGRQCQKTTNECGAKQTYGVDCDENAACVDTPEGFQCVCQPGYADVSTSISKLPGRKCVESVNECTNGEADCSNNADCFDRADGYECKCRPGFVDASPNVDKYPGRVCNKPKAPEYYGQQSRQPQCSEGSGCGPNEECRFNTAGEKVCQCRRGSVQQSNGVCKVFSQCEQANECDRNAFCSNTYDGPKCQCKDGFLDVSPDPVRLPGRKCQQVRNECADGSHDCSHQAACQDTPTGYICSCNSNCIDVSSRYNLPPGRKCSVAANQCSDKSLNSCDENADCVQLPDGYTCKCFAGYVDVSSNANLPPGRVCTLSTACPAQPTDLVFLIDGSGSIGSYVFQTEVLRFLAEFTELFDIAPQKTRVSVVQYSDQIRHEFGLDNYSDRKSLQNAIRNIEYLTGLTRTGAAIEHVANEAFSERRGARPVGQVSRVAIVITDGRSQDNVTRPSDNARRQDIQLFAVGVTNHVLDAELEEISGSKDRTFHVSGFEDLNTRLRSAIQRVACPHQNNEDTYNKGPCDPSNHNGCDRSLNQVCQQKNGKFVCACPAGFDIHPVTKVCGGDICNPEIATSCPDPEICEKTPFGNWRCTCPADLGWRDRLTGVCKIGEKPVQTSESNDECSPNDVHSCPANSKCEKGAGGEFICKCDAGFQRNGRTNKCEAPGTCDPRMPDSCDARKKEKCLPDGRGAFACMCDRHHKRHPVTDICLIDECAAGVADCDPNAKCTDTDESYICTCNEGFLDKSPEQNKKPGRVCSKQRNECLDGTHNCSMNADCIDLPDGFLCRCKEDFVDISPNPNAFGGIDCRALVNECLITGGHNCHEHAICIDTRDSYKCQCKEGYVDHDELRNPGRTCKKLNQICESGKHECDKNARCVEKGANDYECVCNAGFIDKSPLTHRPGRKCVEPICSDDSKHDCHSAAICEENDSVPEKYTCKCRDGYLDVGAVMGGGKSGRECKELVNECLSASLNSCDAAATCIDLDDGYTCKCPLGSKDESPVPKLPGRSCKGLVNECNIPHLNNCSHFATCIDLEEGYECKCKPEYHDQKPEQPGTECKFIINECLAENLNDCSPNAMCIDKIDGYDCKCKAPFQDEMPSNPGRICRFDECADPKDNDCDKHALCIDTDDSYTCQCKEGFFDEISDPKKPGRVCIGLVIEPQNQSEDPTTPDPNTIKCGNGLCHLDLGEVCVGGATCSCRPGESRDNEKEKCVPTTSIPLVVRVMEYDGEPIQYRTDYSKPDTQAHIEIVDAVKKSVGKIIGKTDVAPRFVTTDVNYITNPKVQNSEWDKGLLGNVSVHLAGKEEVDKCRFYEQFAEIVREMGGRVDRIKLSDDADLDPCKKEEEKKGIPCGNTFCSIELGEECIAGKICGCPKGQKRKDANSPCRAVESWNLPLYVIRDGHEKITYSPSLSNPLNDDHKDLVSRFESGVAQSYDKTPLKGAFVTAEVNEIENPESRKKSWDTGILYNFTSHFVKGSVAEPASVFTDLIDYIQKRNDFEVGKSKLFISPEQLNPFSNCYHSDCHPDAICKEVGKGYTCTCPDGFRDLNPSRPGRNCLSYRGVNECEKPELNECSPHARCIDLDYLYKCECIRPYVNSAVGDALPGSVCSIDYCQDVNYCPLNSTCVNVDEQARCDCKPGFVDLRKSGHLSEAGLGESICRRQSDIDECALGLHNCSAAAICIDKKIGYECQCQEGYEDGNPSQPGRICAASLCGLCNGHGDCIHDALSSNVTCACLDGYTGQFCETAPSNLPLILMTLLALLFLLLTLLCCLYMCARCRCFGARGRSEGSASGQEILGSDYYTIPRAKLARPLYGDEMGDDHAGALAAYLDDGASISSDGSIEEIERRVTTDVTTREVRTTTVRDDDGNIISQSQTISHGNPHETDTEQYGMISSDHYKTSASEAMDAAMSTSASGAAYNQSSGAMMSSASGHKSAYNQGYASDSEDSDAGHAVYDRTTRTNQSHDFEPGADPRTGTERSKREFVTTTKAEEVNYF
UniProt Q9Y5K8: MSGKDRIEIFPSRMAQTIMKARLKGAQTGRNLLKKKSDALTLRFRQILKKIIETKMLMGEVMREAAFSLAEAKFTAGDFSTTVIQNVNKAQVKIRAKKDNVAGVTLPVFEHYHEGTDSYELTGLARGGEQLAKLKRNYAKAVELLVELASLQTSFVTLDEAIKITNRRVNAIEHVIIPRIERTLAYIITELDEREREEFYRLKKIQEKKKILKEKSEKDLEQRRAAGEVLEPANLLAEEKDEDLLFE
UniProt P10567: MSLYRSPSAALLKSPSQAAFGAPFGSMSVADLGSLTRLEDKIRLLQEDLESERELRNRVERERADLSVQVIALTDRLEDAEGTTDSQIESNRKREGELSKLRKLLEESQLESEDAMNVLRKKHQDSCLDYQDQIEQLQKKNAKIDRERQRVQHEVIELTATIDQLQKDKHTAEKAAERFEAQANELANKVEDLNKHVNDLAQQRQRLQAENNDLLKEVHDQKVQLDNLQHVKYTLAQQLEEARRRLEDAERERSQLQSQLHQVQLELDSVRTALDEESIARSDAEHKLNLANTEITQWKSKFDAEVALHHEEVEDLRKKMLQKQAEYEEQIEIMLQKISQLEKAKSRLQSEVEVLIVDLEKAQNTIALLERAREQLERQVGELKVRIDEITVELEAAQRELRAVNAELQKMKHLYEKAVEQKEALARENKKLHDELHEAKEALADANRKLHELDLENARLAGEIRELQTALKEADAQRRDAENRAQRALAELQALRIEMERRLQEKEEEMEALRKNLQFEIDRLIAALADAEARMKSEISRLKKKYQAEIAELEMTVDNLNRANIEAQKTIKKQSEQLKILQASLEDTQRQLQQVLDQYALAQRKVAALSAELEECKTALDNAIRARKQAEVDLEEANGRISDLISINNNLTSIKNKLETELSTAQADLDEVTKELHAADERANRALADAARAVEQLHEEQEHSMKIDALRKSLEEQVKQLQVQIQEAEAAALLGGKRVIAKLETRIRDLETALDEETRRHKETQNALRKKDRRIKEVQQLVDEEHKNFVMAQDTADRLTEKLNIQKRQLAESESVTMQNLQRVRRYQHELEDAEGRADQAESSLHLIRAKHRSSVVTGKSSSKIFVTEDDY
UniProt P34462: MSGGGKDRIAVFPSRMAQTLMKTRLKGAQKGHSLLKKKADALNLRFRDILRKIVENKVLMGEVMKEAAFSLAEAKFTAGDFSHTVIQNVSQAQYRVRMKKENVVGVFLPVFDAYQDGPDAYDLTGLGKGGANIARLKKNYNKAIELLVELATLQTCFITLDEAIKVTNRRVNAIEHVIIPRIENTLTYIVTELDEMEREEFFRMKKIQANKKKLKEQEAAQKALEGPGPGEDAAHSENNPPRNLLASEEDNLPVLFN
UniProt Q16864: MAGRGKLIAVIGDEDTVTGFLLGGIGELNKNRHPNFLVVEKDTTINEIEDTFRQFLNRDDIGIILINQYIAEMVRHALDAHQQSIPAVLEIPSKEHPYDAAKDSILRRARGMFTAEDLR
UniProt P12845: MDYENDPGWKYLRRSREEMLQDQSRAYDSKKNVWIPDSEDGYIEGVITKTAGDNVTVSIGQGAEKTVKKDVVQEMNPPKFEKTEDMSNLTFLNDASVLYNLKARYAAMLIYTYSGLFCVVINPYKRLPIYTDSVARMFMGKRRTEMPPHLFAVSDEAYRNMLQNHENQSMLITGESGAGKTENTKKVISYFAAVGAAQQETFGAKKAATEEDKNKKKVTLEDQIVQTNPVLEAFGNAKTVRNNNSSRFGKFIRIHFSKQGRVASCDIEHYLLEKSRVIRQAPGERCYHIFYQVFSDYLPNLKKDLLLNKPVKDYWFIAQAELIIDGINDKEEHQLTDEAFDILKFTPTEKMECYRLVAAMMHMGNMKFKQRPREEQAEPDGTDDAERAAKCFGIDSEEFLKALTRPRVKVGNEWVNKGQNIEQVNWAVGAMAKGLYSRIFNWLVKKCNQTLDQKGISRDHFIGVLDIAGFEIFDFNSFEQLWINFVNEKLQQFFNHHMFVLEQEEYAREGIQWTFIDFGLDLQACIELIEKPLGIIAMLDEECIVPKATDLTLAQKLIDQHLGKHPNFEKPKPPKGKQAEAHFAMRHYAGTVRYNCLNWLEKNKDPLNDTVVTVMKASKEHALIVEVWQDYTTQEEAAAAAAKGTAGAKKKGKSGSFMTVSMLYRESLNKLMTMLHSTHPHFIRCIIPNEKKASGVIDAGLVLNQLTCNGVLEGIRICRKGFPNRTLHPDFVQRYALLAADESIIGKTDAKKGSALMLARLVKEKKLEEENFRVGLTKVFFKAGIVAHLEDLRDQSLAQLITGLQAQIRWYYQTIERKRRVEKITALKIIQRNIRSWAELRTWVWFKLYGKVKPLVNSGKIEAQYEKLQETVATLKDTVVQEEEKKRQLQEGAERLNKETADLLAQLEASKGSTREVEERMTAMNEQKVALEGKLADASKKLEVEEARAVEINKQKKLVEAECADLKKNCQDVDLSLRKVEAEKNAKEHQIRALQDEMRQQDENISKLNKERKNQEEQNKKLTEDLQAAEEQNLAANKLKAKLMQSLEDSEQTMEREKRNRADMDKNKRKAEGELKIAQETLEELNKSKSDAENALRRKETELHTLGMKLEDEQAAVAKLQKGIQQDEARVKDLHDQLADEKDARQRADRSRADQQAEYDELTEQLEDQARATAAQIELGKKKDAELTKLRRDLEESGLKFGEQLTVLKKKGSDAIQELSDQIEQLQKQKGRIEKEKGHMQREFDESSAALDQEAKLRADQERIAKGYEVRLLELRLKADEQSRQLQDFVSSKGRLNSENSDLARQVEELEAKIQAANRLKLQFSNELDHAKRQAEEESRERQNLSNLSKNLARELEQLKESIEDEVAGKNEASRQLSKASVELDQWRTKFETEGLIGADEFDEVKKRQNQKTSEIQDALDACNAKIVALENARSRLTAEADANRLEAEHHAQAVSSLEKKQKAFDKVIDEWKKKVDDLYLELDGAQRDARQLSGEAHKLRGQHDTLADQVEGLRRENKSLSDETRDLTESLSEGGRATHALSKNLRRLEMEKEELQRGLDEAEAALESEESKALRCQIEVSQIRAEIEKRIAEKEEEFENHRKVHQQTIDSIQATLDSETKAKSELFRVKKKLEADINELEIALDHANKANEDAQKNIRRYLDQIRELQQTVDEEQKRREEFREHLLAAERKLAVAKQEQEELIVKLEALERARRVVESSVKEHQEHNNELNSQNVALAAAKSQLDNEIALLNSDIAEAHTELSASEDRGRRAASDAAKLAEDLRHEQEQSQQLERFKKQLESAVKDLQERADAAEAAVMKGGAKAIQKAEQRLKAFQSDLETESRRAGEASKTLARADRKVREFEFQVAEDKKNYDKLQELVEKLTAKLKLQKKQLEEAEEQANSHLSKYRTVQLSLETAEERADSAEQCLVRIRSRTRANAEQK

Experiments:
GFP::BBLN-1 (C. elegans) = molecular target: T1, GFP::BBLN-1 (C. elegans) (UniProt Q18012); test: affinity purification with mass spectrometry
T1 sequence: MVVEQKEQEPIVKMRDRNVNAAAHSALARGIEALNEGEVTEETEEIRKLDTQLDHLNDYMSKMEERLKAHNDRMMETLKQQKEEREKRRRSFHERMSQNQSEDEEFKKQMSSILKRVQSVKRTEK

BioGFP::BBLN (human) = molecular target: T2, BioGFP::BBLN (human) (UniProt Q9BUW7); test: affinity purification with mass spectrometry
T2 sequence (chain, biotin (Bio tag, BirA co-expressed)): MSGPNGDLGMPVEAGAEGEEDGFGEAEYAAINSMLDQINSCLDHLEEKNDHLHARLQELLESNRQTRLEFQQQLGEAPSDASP

Molecule: LET-805
binding (GFP::BBLN-1 (C. elegans)): binds

Molecule: MUP-4 (from UniProt Q21281 16-2104)
binding (GFP::BBLN-1 (C. elegans)): binds

Molecule: VAB-10
binding (GFP::BBLN-1 (C. elegans)): binds

Molecule: V-ATPase subunit D (ATP6V1D) (from UniProt Q9Y5K8 1-247)
binding (BioGFP::BBLN (human)): binds

Molecule: FLN-2
binding (GFP::BBLN-1 (C. elegans)): binds

B2: MUA-6/IFA-2 (protein, UniProt O02365 1-581)
chain: MTDPDSYRSSITSRPSFNRTVTSSSQNYGAPGSGNRVLKIVTETHSSSVSSGLSPYGQNAASTIRDNREREKKEIMELNDRLASYIEKVRFLDAQNRKLDADLKMLQGRFGKSTGSVKVMYEMEITTATNVVKQTGKDHGETEKEIRKLQDQLDELRKKFEEAQRGRAEDRLKIDDLLVTLSNLEAEINLLKRRIALLEEEVARLKKENFRLTSELQRVRIELDQETLLRIDNQNKVKTILEEIDFMKRGFETELKELQAQAARDTTSENREYFKNELANAMRDIRAEYDQIMNGNRNDMESWYQLRVQEINTQSNRQNAENNYQKEEVKRLRNQTSELRQKLSDLESRNLLLEKQIEDLNYQLEDDQRSYEAALNDKDAQIRKLREECQALMVELQMLLDTKQTLDGELKVYRQMLEGNSEGNGLRQLVEKVVRTSAINEEADTETMRVVKGEHSSRTSYQRSAKGNVAIKETSPEGKFVILENTHRAKEEPLGDWKLKRKIDGKREIVFTFPSDYILHPFQSVKIFARGQGIANPPEVLIFEGDETFGVGANVQTILYNNKGEERATHIQRQSQQTTSS
binding (GFP::BBLN-1 (C. elegans)): binds

B3: IFA-1 (protein, UniProt P90901 1-575)
chain: MMEITRETMSFTSTTPSARAPLGGRTTGNVTSQDRMLKIVTEMRSGAGSGLSPFGQNAASTIRDSREREKKEMSDLNDRLASYIEKVRFLEAQNRKLAADLDALRSKWGKDTHNIRNMYEGELVDAQKLIDETNKQRKDMEGQLKKMQDELAEMRRKLEDATKGREQDRAKIDALLVTLSNLEAEISLLKRRIAQLEDEVKRIKQENQRLLSELQRARTDLDQETLNRIDYQNQVQTLLEEIDFLRRVHDNEIKELQTLASRDTTPENREFFKNELSSAIRDIREEYDQVNNVHRNDMESWYRLKVQEIQTQSARQNMEQGYAKEEVKRLRTQLSDLRGKLADLESRNSLLEKQIQELNYQLEDDQRSYEAALNDRDSQIRKMREECQALMVELQMLLDTKQTLDAEIAIYRKMLEGEENRAGLKQLVEQVVKTHAITQETDTETMRVVKGETASRQSFQRSAKGNVSIHEASPDGKFIVLQNTHRAKDEAIGEWKLKRRIDGKRENVYTLPRDFVLRAGKTLKIFARNQGVASPPDQLVYDAEDSFGSGNNVQTILFNKEGEERATHIQRQSTA
binding (GFP::BBLN-1 (C. elegans)): binds

B4: PAT-12 (protein, UniProt Q95QA6 1-663)
chain: MTSHIATETSVNRWSTEPVVREEGRPPGPEDFPSTKQGREQDGNVIGITPNYKIGEQKPNSELNLGKTGSLPRGSGDYKMTYRQEDYKQTIIDPKVITNANMPYISTRIPDPRRNLAGDFPSEHSKSKIKLDPLEQRRFRSSESRPITTSNYLAESVDRHREMEASRLREYLKAKENEANQPWNKPGWPGPKKNDESLRELETMKQRIETLKRDANKGPVNAELDELSKRAEELRKRDGWSKYKLVESDIYKTDPDPMPANIKDQVRDLLESRNSVETTTTQRDHDKSGYVTDVSTATWNFSTVDYSPRSVVSMNGASHDILKDDKPRSIMKRNDLVRREQMLYPTVDTQVVKSVVKKPTVTETVQRFEETRRTEEVERRVQRREKKERRSRHHSSSRHHSGWEGHTGGYQGHRSSSLSRGGHGGGGQETYYRQETTRRQQHNNYDDNFNRGIAHARYGSLSDSLRRGELQYVPNGEVRQSFYRDGSNGGQRMHKSYSTRDVFTGDGYDDRRSVSSFRRGSQQQVSPFVEFPPTLPRRGGGGDYRREEDAYFRPVSKSRSYADWDDAGRAGMGREVRRYDDDMSRLEAEFRDSLLMPMPAGNMNERDHRTEQLPGGYETFNKERHANSGRRSGRDGKPVDFNEATQEYNYKREQTLNDDRRRR
binding (GFP::BBLN-1 (C. elegans)): binds

B6: IFB-1 (protein, UniProt Q19289 1-589)
chain: MSSHKESSEYEMQYRSTIQPRTAVRSQSRQSGNYVSGGNGAGSGGRVLKMVTEMGSATVGGISPALSANAAKSFLEATDKEKKTLQGLNDRLGNYIDRVKKLEEQNRKLVADLDELRGKWGKDTSEIKIKYSESLSTARKDIDDAARRKAEVDVKVARHRDDLAEYRSRYEDIQQRRESDREKISQWTNAIADAQSEVEMLRARFKQLTDEEKRVTADNSRIWEELQKARSDLDDETIGRIDFQNQVQTLMEELEFLRRVHEQEVKELQALLAQAPADTREFFKNELALAIRDIKDEYDIIAKQGKQDMESWYKLKVSEVQGSANRANMESTYQRDEVKRMRDNIGDLRGKLGDLENKNSLLEKEVQNLNYQLTDDQRQYEAALNDRDATLRRMREECQTLVAELQALLDTKQMLDAEIAIYRKMLEGEETRVGLTQMVEQAVKTHSLQQQENTDSTRSVRGEVSTKTTFQRSAKGNVTISECDPNGKFIKLENSHRNKDENVGEHKIRRKLDGRREIVYSIPANVVIKPGKNLTIYARDQGGINNPPESLVFDGENTWGIGANVVTSLVNKDGEERATHTQKTIQSGQ
binding (GFP::BBLN-1 (C. elegans)): binds

B7: VHA-9 (protein, UniProt Q23680 1-121)
chain: MASAAKGKILAVIGDEDTVVGFLLGGVGELNKARKPNYLIVDKQTTVQEIEEAFNGFCARDDIAIILINQHIAEMIRYAVDNHTQSIPAVLEIPSKEAPYDPSKDSILNRARGLFNPEDFR
binding (GFP::BBLN-1 (C. elegans)): binds

Now from value to molecule:

binding (GFP::BBLN-1 (C. elegans)): binds
Molecule: UNC-15 (from UniProt P10567 1-872)

binding (GFP::BBLN-1 (C. elegans)): binds
Molecule: VHA-14 (from UniProt P34462 1-257)

binding (BioGFP::BBLN (human)): binds
Molecule: V-ATPase subunit F (ATP6V1F) (from UniProt Q16864 1-119)

binding (GFP::BBLN-1 (C. elegans)): binds
Molecule: MYO-2 (from UniProt P12845 1-1947)

binding (GFP::BBLN-1 (C. elegans)): binds
B1: IFA-4 (protein, UniProt P90900 1-575)
chain: MSESEYRSSISVRPTFNRTMQSTATYGSTISSGTSRTLKITEIGGSNLTSGMSPFGGHAASAIRESRTREKKEMSELNDRLASYIEKVRFLEAQNRKMEKDLNLLRGKWGHDSTSVKVMYETELRSAKDLIADSDKERAQLEDQIKKLVEELNNYRNKLHEAERGADVTRKELDNVLGRLGALEAEIELLKRRISLMEESIGHLKRENHRMIDSLHHARNAVEQETLNRIDYQNQVQTLLEECDFIRRIHDSEIHDLLAMASRDTTVENREYFKNELSSAIREIRSEYDHVSNTTRTDIESWYKLKVQEIHTQNSRNCLEQNYAREEVKRLRTTLGDMRGKMADLEGRNLLLEKQIEDLNYQMEEDMRSYEQSLNDKDTSINKLRDESKILMVELQMLIDTKQTLDAEIVIYRKMLDGEENRAGLRQLVEQVVKTTSIHQTKEIESLRVLKGETTSHSSYSRSAKGNIAIQEAEPSGKYIVLENISRRDENIGDWKLRRKIAGKREIVFTFPREFTLRAQKSVKIFARGQGVHSPPDSLVYDLEDSFGTGNDVVTTLYNKEGEDRASHSQRASHT

binding (GFP::BBLN-1 (C. elegans)): binds
B5: IFA-3 (protein, UniProt Q21065 1-581)
chain: MADPDSYRSSITSRPAFNRTVTSSTQNYGTPASGNRVLKIVTETHTSSVASGLSPYGQGAASTIRDDREREKKEITELNDRLASYIGKVRFLAAQNRKLEADLNVLQSRFGKSTGSVKIMYEMEITTATNVVKETGKDHEEAEKEIGKIKDQLDELRKKFEEAQKGRAEDRLKIDELLVTLSNLEAEINLLKRRIALLEEEVARLKKENFRLTSELQRVRSELDQETLLRIDNQNKVTTILEEIDFMKRGFETELKDLQAQAARDTTSENREYFKNELMNSIRDIRAEYDRFMAGNRNDLESWSQIRVQEINTQTNRQNAEINHKRDEVKRLHSQVSELKSKHAELAARNGLLEKQLEDLNYQLEDDQRSYEAALNDKDAQVRKLREECQALLVELQMLLDTKQTLDGELKVYRRMLEGNSEENGLRQLVEKVVRTSAINEEVDTETMRVVKGEHSSRTSYQRSAKGNVSIKEVSPEGKFVILENTHRDKEEPLGDWKLKRKIDGKREIVFTFPSDYILHPVQTVKIFARGNGVANPPEVLVFEGDDTFGAGANVQTILYNNSGEERATHMQRQSQQTTTS
